Some of these results come from one statement about several compounds together. At least one compound was matched to its structure with a doubt left.
What was measured:
Type in all cases: in vivo
Spodoptera littoralis = Spodoptera littoralis (Egyptian Cotton Leafworm) cotton leaf disc spray test; conditions: 200 ppm spray on cotton leaf discs, L1 larvae, mortality, feeding behavior, growth regulation 3 DAT
Heliothis virescens = Heliothis virescens (Tobacco Budworm) egg test on artificial diet; conditions: 200 ppm (concentration in well 18 ppm), eggs 0-24 h old on artificial diet, 4 days; egg mortality, larval mortality, growth regulation
Plutella xylostella = Plutella xylostella (Diamond Back Moth) artificial diet MTP test; conditions: 200 ppm (concentration in well 18 ppm), L2 larvae, 6 days, larval mortality, growth regulation
Diabrotica balteata = Diabrotica balteata (Corn Root Worm) artificial diet MTP test; conditions: 200 ppm (concentration in well 18 ppm), L2 larvae, 5 days, larval mortality, growth regulation
Thrips tabaci = Thrips tabaci (Onion Thrips) sunflower leaf disc spray test; conditions: 200 ppm spray on sunflower leaf discs, population of mixed ages, 7 days; mortality
Tetranychus urticae = Tetranychus urticae (Two-Spotted Spider Mite) bean leaf disc spray test; conditions: 200 ppm spray on bean leaf discs, mite populations of mixed ages, 8 days; egg, larval and adult mortality
Myzus persicae = Myzus persicae (Green Peach Aphid) sunflower leaf disc spray test; conditions: 200 ppm spray on sunflower leaf discs, aphid population of mixed ages, 6 DAT; mortality

COc1c(NC(=O)c2ccc([N+](=O)[O-])cc2C)cccc1C(=O)Nc1c(Cl)cc(C(F)(C(F)(F)F)C(F)(F)F)cc1Cl [E27]
at least 80%: control of Spodoptera littoralis (Spodoptera littoralis) | control of Heliothis virescens (Heliothis virescens) | control of Plutella xylostella (Plutella xylostella) | control of Diabrotica balteata (Diabrotica balteata) | control of Thrips tabaci (Thrips tabaci) | control of Tetranychus urticae (Tetranychus urticae) | control of Myzus persicae (Myzus persicae)

COc1c(NC(=O)c2c(F)cc(F)cc2F)cccc1C(=O)Nc1c(Cl)cc(C(F)(C(F)(F)F)C(F)(F)F)cc1Cl [E28]
at least 80%: control of Spodoptera littoralis (Spodoptera littoralis) | control of Heliothis virescens (Heliothis virescens) | control of Plutella xylostella (Plutella xylostella) | control of Diabrotica balteata (Diabrotica balteata) | control of Thrips tabaci (Thrips tabaci) | control of Tetranychus urticae (Tetranychus urticae) | control of Myzus persicae (Myzus persicae)

COc1c(NC(=O)c2c(F)cccc2F)cccc1C(=O)Nc1c(Cl)cc(C(F)(C(F)(F)F)C(F)(F)F)cc1Cl [E29]
at least 80%: control of Spodoptera littoralis (Spodoptera littoralis) | control of Heliothis virescens (Heliothis virescens) | control of Plutella xylostella (Plutella xylostella) | control of Diabrotica balteata (Diabrotica balteata) | control of Thrips tabaci (Thrips tabaci) | control of Tetranychus urticae (Tetranychus urticae) | control of Myzus persicae (Myzus persicae)

COc1c(NC(=O)c2snnc2C)cccc1C(=O)Nc1c(C)cc(C(F)(C(F)(F)F)C(F)(F)C(F)(F)F)cc1C (stereo not shown) [F7]
at least 80%: control of Spodoptera littoralis (Spodoptera littoralis) | control of Heliothis virescens (Heliothis virescens) | control of Plutella xylostella (Plutella xylostella) | control of Diabrotica balteata (Diabrotica balteata) | control of Thrips tabaci (Thrips tabaci) | control of Tetranychus urticae (Tetranychus urticae) | control of Myzus persicae (Myzus persicae)
